Assay results taken from the supplement of paper PMC6411743.
± gives the standard deviation of the averaged measurements. This is a selection; strong and weak results do not stand in their true shares.

Amino acid sequences for entries named in this document (tags omitted). A change or cut given only in a name is not applied to a line headed by its entry.
UniProt P17980, whole entry: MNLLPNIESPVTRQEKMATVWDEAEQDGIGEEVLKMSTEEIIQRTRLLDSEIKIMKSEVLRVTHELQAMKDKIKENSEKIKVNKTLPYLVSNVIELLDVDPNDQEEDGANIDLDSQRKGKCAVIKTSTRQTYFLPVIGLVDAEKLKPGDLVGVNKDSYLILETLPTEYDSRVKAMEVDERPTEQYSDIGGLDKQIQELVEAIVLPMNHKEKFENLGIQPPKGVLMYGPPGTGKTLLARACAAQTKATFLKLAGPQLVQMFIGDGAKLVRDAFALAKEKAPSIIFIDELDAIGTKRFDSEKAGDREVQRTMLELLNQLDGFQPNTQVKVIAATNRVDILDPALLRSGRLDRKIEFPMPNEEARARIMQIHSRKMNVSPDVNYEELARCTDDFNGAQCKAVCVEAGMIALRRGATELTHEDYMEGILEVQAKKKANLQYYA
UniProt P32242: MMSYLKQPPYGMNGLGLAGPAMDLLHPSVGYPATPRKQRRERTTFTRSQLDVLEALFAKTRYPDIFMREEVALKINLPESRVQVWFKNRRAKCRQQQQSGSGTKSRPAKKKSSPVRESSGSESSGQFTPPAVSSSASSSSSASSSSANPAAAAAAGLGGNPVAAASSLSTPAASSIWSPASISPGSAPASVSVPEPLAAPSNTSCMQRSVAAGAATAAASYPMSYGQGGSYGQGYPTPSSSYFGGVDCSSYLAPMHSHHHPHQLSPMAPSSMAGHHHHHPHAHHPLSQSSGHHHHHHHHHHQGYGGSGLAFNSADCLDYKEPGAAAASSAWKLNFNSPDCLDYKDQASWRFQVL
UniProt P23229: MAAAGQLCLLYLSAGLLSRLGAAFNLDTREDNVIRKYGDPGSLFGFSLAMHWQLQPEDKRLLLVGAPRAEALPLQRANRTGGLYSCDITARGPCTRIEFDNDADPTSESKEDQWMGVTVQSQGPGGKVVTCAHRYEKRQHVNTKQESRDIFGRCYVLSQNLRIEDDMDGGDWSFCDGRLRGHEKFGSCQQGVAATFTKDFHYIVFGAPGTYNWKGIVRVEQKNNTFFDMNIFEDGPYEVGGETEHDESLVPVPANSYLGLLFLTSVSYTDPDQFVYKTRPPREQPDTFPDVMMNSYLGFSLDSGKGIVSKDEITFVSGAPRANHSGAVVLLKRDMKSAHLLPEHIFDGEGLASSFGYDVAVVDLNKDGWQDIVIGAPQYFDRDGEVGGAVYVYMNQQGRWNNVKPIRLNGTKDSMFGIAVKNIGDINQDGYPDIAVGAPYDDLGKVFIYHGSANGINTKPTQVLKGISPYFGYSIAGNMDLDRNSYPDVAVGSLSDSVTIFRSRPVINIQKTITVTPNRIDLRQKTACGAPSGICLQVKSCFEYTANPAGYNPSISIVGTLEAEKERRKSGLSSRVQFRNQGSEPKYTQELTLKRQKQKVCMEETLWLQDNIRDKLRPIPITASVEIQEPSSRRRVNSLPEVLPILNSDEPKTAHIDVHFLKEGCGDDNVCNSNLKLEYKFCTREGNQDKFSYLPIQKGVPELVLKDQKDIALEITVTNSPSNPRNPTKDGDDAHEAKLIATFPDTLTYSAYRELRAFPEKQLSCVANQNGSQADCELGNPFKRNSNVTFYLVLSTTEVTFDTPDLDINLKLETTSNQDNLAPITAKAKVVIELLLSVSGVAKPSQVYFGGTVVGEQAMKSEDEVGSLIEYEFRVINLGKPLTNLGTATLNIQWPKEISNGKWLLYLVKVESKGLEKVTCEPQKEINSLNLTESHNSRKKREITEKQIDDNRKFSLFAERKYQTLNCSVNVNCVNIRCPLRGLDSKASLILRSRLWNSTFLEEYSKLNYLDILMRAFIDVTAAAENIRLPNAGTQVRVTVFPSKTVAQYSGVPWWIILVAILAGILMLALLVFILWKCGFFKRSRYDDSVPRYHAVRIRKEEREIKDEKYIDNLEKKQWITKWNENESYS
UniProt P21912: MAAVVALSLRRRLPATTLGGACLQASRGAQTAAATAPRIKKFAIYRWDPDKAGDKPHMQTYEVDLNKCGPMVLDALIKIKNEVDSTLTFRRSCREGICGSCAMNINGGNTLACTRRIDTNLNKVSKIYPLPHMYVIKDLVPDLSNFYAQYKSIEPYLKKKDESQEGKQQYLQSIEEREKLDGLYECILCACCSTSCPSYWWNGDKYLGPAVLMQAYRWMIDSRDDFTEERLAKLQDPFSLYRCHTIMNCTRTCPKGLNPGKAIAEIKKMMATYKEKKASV
UniProt P25490, whole entry: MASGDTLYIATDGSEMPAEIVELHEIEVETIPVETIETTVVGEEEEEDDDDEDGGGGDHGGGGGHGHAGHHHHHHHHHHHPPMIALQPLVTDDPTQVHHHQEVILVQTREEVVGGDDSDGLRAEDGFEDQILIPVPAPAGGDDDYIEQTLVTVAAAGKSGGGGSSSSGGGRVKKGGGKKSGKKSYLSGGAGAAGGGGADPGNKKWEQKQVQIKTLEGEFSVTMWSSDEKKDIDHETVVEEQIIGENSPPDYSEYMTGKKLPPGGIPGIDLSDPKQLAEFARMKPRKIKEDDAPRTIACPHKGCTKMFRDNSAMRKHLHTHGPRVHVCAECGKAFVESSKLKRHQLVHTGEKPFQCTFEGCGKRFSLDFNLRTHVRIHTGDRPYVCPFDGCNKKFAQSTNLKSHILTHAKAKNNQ
UniProt P19838: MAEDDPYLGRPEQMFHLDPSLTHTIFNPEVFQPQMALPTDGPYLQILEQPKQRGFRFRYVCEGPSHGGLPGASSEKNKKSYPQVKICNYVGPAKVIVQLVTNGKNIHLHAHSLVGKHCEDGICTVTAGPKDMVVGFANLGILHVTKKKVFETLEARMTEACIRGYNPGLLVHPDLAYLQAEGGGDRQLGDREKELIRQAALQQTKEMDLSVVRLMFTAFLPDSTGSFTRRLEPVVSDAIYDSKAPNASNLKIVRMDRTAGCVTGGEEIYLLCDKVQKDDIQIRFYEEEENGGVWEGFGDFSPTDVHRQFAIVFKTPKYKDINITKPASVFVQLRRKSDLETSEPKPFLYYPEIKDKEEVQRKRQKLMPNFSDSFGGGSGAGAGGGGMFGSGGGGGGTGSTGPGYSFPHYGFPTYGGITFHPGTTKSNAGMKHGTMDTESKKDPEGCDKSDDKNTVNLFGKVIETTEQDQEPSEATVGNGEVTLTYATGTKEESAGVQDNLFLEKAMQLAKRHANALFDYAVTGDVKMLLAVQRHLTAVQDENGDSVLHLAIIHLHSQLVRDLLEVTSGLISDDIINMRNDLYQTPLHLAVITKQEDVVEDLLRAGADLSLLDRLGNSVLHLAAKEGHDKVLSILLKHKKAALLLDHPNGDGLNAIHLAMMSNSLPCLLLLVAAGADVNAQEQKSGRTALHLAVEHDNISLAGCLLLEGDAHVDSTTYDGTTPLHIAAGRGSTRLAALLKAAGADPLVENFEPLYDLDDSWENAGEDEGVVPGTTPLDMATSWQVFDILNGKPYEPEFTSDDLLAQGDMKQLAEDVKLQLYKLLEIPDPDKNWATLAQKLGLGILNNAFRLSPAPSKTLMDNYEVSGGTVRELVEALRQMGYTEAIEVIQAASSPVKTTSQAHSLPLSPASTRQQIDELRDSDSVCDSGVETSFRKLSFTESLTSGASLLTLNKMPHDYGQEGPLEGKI
UniProt P30049: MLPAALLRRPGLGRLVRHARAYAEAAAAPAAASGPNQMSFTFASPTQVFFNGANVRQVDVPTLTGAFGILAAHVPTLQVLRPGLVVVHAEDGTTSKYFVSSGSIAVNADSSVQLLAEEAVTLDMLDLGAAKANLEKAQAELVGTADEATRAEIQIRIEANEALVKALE
UniProt P16885: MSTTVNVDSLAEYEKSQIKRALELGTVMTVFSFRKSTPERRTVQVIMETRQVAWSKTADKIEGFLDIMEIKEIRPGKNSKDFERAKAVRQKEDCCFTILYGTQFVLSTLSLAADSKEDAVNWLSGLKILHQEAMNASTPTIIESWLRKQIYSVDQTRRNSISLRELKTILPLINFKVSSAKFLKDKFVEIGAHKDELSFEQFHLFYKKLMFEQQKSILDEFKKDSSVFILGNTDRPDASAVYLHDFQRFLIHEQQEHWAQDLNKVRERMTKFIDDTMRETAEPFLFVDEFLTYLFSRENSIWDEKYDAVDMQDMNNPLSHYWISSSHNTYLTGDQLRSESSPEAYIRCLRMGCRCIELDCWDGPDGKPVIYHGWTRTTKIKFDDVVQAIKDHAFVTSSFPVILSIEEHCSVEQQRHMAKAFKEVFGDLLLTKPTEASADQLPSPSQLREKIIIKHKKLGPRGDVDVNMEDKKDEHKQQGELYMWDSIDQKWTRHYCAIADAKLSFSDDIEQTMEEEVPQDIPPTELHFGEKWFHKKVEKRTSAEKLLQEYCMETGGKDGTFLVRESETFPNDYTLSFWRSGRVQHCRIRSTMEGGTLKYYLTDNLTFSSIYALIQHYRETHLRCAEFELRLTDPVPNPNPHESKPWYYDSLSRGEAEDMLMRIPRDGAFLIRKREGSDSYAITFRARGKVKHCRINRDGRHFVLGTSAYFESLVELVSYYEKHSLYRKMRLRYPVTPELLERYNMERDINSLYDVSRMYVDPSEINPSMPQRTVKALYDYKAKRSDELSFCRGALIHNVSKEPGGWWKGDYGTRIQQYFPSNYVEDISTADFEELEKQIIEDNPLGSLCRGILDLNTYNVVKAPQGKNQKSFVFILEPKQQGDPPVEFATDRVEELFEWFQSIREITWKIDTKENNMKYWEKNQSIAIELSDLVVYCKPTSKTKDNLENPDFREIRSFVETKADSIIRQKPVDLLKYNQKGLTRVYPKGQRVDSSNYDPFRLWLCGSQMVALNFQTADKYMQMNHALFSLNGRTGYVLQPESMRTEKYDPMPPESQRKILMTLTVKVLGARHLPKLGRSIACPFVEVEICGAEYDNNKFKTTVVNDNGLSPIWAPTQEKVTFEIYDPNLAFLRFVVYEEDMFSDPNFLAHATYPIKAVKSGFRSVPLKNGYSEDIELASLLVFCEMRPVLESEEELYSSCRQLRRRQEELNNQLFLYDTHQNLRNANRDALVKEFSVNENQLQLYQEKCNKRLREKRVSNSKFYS
UniProt P30047: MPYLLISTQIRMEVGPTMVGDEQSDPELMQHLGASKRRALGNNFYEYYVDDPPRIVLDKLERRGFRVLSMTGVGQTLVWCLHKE
UniProt P28066: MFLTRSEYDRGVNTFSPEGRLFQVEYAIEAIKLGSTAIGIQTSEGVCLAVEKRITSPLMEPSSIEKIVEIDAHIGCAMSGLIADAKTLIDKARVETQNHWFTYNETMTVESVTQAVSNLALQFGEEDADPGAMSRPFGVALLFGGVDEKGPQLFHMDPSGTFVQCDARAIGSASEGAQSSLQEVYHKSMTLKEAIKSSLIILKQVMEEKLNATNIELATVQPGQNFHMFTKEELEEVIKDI
UniProt P31930: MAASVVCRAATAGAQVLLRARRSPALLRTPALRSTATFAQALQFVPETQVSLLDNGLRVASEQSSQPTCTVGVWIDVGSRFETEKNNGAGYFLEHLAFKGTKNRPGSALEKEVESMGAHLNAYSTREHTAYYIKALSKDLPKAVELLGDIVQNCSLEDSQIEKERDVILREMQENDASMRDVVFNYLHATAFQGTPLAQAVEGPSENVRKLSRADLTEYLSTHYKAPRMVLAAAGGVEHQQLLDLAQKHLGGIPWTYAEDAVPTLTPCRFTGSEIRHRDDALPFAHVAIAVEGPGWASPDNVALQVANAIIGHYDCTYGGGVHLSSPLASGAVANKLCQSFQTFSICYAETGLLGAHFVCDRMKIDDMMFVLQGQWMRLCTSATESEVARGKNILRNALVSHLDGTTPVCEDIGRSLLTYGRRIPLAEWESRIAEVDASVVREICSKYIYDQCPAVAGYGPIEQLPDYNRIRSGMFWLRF
UniProt P17480: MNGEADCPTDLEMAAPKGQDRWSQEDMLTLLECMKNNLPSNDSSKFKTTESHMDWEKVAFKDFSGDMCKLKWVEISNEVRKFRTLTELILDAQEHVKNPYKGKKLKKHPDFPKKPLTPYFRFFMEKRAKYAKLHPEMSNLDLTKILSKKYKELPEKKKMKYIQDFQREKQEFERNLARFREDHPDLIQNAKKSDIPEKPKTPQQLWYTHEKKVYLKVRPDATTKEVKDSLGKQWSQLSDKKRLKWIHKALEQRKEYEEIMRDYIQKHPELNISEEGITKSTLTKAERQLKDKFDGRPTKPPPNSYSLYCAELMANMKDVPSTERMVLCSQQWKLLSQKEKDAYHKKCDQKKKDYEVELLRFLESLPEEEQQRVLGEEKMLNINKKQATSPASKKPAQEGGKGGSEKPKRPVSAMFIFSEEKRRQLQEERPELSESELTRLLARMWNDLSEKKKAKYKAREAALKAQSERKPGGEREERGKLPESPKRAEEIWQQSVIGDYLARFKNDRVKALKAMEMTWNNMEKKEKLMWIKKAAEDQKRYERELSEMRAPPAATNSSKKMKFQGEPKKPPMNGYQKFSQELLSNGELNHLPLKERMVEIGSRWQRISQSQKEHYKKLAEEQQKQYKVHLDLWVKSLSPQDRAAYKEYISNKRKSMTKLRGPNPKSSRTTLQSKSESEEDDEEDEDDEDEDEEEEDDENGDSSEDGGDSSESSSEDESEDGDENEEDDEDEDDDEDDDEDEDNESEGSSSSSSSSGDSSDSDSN

Compound: Nc1ncnc2c1ncn2[C@@H]1O[C@H](COP(=O)(O)OP(=O)(O)OP(=O)(O)O)[C@@H](O)[C@H]1O [adenosine triphosphate]
Test: NP40-soluble protein abundance relative to vehicle (solubility fold change) (ratio); higher = more soluble protein in presence of ATP
Outline: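 Across three independent experiments, values are fold changes against the detergent-processed vehicle for each replicate, based on vsn-normalised intensities. The samples were Jurkat crude lysate treated with eight concentrations (0.1 to 10 mM) for 10 min at room temperature and then 3 min at 37 °C. Lysate was solubilised with 0.8% NP40 and benzonase, ultracentrifuged, and the supernatant analysed by TMT-labelled LC-MS/MS.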

Target	NP40-soluble protein abundance (concentration: 1mM)	NP40-soluble protein abundance (concentration: 2mM)	NP40-soluble protein abundance (concentration: 4mM)	NP40-soluble protein abundance (concentration: 6mM)	NP40-soluble protein abundance (concentration: 8mM)	NP40-soluble protein abundance (concentration: 10mM)
UniProt P17980 and related entries	0.935 ± 0.018	0.903 ± 0.0097	0.892 ± 0.0091	0.898 ± 0.076	0.903 ± 0.028	0.892 ± 0.055
PGAM1 (UniProt P18669)	0.964 ± 0.21	1.02 ± 0.1	0.859 ± 0.12	1.04 ± 0.14	0.922 ± 0.021	0.852 ± 0.1
ELK1 (UniProt P19419)	0.945 ± 0.075	0.953 ± 0.1	0.949 ± 0.12	1 ± 0.15	0.953 ± 0.08	0.959 ± 0.085
PSMA4 (UniProt P25789)	0.782 ± 0.21	1.05 ± 0.29	0.936 ± 0.21	0.751 ± 0.24	0.95 ± 0.1	0.765 ± 0.23
UniProt P32242	0.954 ± 0.19	0.872 ± 0.15	0.953 ± 0.18	0.847 ± 0.13	0.914 ± 0.14	0.956 ± 0.17
UniProt P23229 and related entries	0.947 ± 0.021	1.02 ± 0.021	1 ± 0.026	1.01 ± 0.042	0.966 ± 0.021	0.987 ± 0.023
PRKCH (UniProt P24723)	1.04 ± 0.056	1.03 ± 0.041	1 ± 0.044	0.99 ± 0.11	1.05 ± 0.04	1.05 ± 0.025
UniProt P16591 and related entries	1.05 ± 0.047	1.03 ± 0.049	0.986 ± 0.033	0.994 ± 0.041	1 ± 0.028	1.01 ± 0.05
MCM3 (UniProt P25205)	0.963 ± 0.04	0.939 ± 0.023	0.91 ± 0.012	0.8963 ± 0.0084	0.933 ± 0.027	0.937 ± 0.04
SDHB (UniProt P21912)	0.9636 ± 0.0081	0.971 ± 0.026	0.947 ± 0.012	0.957 ± 0.011	0.943 ± 0.022	0.909 ± 0.028
UniProt P29375 and related entries	1.2 ± 0.19	1.23 ± 0.16	1.29 ± 0.11	1.35 ± 0.19	1.46 ± 0.15	1.5 ± 0.13
YY1 (UniProt P25490)	0.973 ± 0.05	0.976 ± 0.021	0.973 ± 0.027	1.01 ± 0.06	0.996 ± 0.031	0.996 ± 0.022
UniProt P27105 and related entries	1.12 ± 0.14	1.11 ± 0.22	1.07 ± 0.18	1.18 ± 0.25	1.06 ± 0.24	1.06 ± 0.2
PPIF (UniProt P30405)	0.993 ± 0.046	0.963 ± 0.011	0.934 ± 0.0096	1.011 ± 0.0056	0.955 ± 0.024	0.911 ± 0.038
UniProt P29016	0.904 ± 0.11	0.997 ± 0.028	0.984 ± 0.024	0.955 ± 0.076	0.941 ± 0.047	0.905 ± 0.059
TCEA1 (UniProt P23193)	0.926 ± 0.04	0.957 ± 0.014	0.934 ± 0.036	0.9666 ± 0.0084	0.92 ± 0.019	0.93 ± 0.024
UniProt P20810-10|P20810-6	0.958 ± 0.075	0.956 ± 0.029	0.92 ± 0.019	0.986 ± 0.042	0.901 ± 0.032	0.9053 ± 0.0077
PFKL (UniProt P17858)	1.06 ± 0.049	1.02 ± 0.024	1.021 ± 0.0043	0.9991 ± 0.0064	1.05 ± 0.039	1.06 ± 0.067
PIK3R1 (UniProt P27986)	0.995 ± 0.012	0.987 ± 0.016	0.968 ± 0.011	0.998 ± 0.034	0.976 ± 0.0084	0.972 ± 0.017
UniProt P25705 and related entries	0.975 ± 0.031	0.946 ± 0.019	0.913 ± 0.023	0.944 ± 0.042	0.921 ± 0.052	0.931 ± 0.052
MYH9 (UniProt P35579)	0.98 ± 0.11	0.983 ± 0.07	0.921 ± 0.074	1.03 ± 0.064	0.976 ± 0.059	0.903 ± 0.059
RPA1 (UniProt P27694)	1.02 ± 0.079	1.01 ± 0.067	0.976 ± 0.059	0.96 ± 0.084	0.984 ± 0.06	0.978 ± 0.042
TNFAIP3 (UniProt P21580)	0.936 ± 0.031	0.912 ± 0.046	0.977 ± 0.04	0.941 ± 0.002	0.968 ± 0.014	0.954 ± 0.026
UQCRC2 (UniProt P22695)	0.949 ± 0.041	0.937 ± 0.031	0.905 ± 0.025	0.894 ± 0.04	0.902 ± 0.017	0.918 ± 0.035
UniProt P30307 and related entries	0.955 ± 0.026	0.992 ± 0.039	0.973 ± 0.058	0.955 ± 0.054	0.901 ± 0.052	0.905 ± 0.078
RAB3A (UniProt P20336)	0.884 ± 0.051	0.909 ± 0.029	0.938 ± 0.053	0.913 ± 0.081	0.923 ± 0.059	0.906 ± 0.06
UniProt P35606 and related entries	1.01 ± 0.065	0.992 ± 0.061	0.985 ± 0.053	0.975 ± 0.027	1.02 ± 0.027	0.98 ± 0.046

Target	NP40-soluble protein abundance (concentration: 1mM)	NP40-soluble protein abundance (concentration: 2mM)	NP40-soluble protein abundance (concentration: 4mM)	NP40-soluble protein abundance (concentration: 6mM)	NP40-soluble protein abundance (concentration: 8mM)	NP40-soluble protein abundance (concentration: 10mM)
RPL35A (UniProt P18077)	1.1 ± 0.11	1.02 ± 0.089	1 ± 0.043	1.01 ± 0.082	0.932 ± 0.094	1.06 ± 0.062
UniProt P19838 and related entries	1.02 ± 0.045	1.02 ± 0.039	0.966 ± 0.035	0.979 ± 0.034	0.987 ± 0.042	0.965 ± 0.035
UniProt P35221 and related entries	0.953 ± 0.046	0.992 ± 0.053	0.983 ± 0.056	0.991 ± 0.05	0.951 ± 0.031	0.935 ± 0.022
UniProt P30049	0.956 ± 0.089	0.919 ± 0.017	0.914 ± 0.056	0.941 ± 0.087	0.947 ± 0.036	0.837 ± 0.011
STMN1 (UniProt P16949)	0.943 ± 0.1	0.891 ± 0.021	0.882 ± 0.024	0.944 ± 0.04	0.872 ± 0.019	0.852 ± 0.097
VDAC1 (UniProt P21796)	0.941 ± 0.015	0.942 ± 0.013	0.885 ± 0.016	0.914 ± 0.046	0.89 ± 0.026	0.924 ± 0.023
PLCG2 (UniProt P16885)	1.06 ± 0.1	1.04 ± 0.095	1.03 ± 0.11	0.995 ± 0.13	1.03 ± 0.073	1.01 ± 0.059
UniProt P20073 and related entries	0.949 ± 0.056	0.9483 ± 0.003	0.933 ± 0.021	0.922 ± 0.026	0.925 ± 0.037	0.913 ± 0.043
UniProt P17612	0.97 ± 0.05	0.956 ± 0.012	0.885 ± 0.02	0.924 ± 0.024	0.885 ± 0.028	0.862 ± 0.043
UniProt P22033	0.994 ± 0.017	0.985 ± 0.044	0.958 ± 0.034	0.958 ± 0.077	0.964 ± 0.045	0.939 ± 0.058
UniProt P30519 and related entries	0.965 ± 0.097	0.93 ± 0.059	0.836 ± 0.18	0.869 ± 0.2	0.918 ± 0.019	0.877 ± 0.028
UniProt P29401 and related entries	1.02 ± 0.053	0.951 ± 0.034	0.931 ± 0.028	0.956 ± 0.057	0.95 ± 0.035	0.928 ± 0.046
POLR2E (UniProt P19388)	1.09 ± 0.041	1.082 ± 0.0086	1.11 ± 0.027	1.04 ± 0.023	1.14 ± 0.042	1.09 ± 0.017
CFL1 (UniProt P23528)	0.931 ± 0.21	0.996 ± 0.12	0.903 ± 0.037	0.869 ± 0.14	0.898 ± 0.03	0.83 ± 0.049
GCHFR (UniProt P30047)	1 ± 0.29	0.957 ± 0.27	1.053 ± 0.0042	1 ± 0.0069	0.983 ± 0.32	0.875 ± 0.15
PPP2R1A (UniProt P30153)	0.964 ± 0.014	0.953 ± 0.022	0.921 ± 0.012	0.917 ± 0.018	0.909 ± 0.023	0.913 ± 0.026
UniProt P28066	0.995 ± 0.011	0.971 ± 0.023	0.943 ± 0.043	0.974 ± 0.061	0.95 ± 0.026	0.919 ± 0.047
UniProt P30154 and related entries	0.941 ± 0.017	0.956 ± 0.026	0.937 ± 0.018	0.935 ± 0.016	0.913 ± 0.016	0.903 ± 0.056
CHML (UniProt P26374)	0.949 ± 0.02	1.02 ± 0.062	0.989 ± 0.067	0.972 ± 0.077	0.948 ± 0.045	0.948 ± 0.057
YWHAQ (UniProt P27348)	0.952 ± 0.093	0.922 ± 0.045	0.92 ± 0.025	0.922 ± 0.067	0.906 ± 0.011	0.818 ± 0.07
ABCD1 (UniProt P33897)	1.11 ± 0.024	1.11 ± 0.037	1.15 ± 0.089	1.08 ± 0.043	1.14 ± 0.11	1.1 ± 0.027
UQCRC1 (UniProt P31930)	0.9928 ± 0.0085	0.9881 ± 0.0093	0.964 ± 0.018	0.98 ± 0.02	0.957 ± 0.027	0.95 ± 0.022
GRK5 (UniProt P34947)	1.2281 ± 0.00061	1.275 ± 0.0056	1.2 ± 0.014	1.273 ± 0.0066	1.31 ± 0.023	1.34 ± 0.11
UniProt P17480 and related entries	1.11 ± 0.041	1.18 ± 0.053	1.28 ± 0.065	1.4 ± 0.12	1.43 ± 0.044	1.6 ± 0.13
BCKDHB (UniProt P21953)	1.09 ± 0.092	1.1 ± 0.092	1.06 ± 0.035	1.04 ± 0.077	1.1 ± 0.088	1.06 ± 0.074
UniProt P35241 and related entries	1 ± 0.038	0.963 ± 0.028	0.9339 ± 0.0043	0.985 ± 0.026	0.922 ± 0.028	0.932 ± 0.031

Just NP40-soluble protein abundance (concentration: 8mM), for some of the entries so far:
Target	NP40-soluble protein abundance (concentration: 8mM)
UniProt P17612	0.885 ± 0.028
UniProt P22033	0.964 ± 0.045

Part of the list above, as comma-separated lines:
Target,NP40-soluble protein abundance (concentration: 1mM),NP40-soluble protein abundance (concentration: 2mM),NP40-soluble protein abundance (concentration: 4mM),NP40-soluble protein abundance (concentration: 6mM),NP40-soluble protein abundance (concentration: 8mM),NP40-soluble protein abundance (concentration: 10mM)
ABCD1 (UniProt P33897),1.11 ± 0.024,1.11 ± 0.037,1.15 ± 0.089,1.08 ± 0.043,1.14 ± 0.11,1.1 ± 0.027
UQCRC1 (UniProt P31930),0.9928 ± 0.0085,0.9881 ± 0.0093,0.964 ± 0.018,0.98 ± 0.02,0.957 ± 0.027,0.95 ± 0.022
